Binding signal data for 36 sequences are collected here from publication PMC7862700.

This is a selection; strong and weak results do not stand in their true shares. At the low end of the ranking the order means little.

The experiment concerns the target SPI1 (UniProt P17947). In words: DAPPL (digital affinity profiling via proximity ligation, sequencing). The following applies: 10 mM Tris-HCl pH 7.5, 50 mM NaCl, 1 mM DTT, 4% glycerol, room temperature, 30 min; GST-TFs on glutathione beads, 16-mer random dsDNA library, 0.1% …; high values mean tight binding; double strand, one strand shown; scale: fold enrichment (6-mer frequency, TF over GST control).
ACCCTA showed a binding signal of 1.19. Under CTTTCT stands 1.67; under ACCGAT, 1.1; under ACCATA, 1.13. As to ACCCCG, the binding signal is 1.14.

Regarding CAATCC, the binding signal amounted to 1.12. The same measure for CACTTG: 1.39.

GTGCTT came in with a binding signal of 1.33. Under TCCCAA stands 1.2; under AAATTA, 1.22; under TTGCAC, 1.26. In turn, AACATA returned a binding signal of 1.21. Under TACACG stands 1.07. The same measure for TCTCGC: 1.69; for CACGAA: 1.06; for TTCACT: 1.33.

The sequence ACTTAA registered a binding signal of 1.24. The same measure for AAGCTC: 1.12. Under GATGAC stands 1.58. The sequence TACGAA gave a binding signal of 1.15.

On to TCACAG, for which the binding signal stood at 0.966. CCGGAA came in with a binding signal of 5.33. The same measure for CCTAAA: 1.25. For ATCACC, the binding signal worked out at 1.11. Under CCATGC stands 1.01; under ATTCCC, 1.34. Under AGCTCC stands 1.25. Sequence TCTTAA came in with a binding signal of 1.23.

In turn, AGCTTC had a binding signal of 1.74. Under TGCTGT stands 0.99. CTATAT returned a binding signal of 1.32. TTACGA registered a binding signal of 1.09. As for ACTGCT, the binding signal came to 1.46.

ATCTCC returned a binding signal of 1.37. Turning to TTCCTG, the binding signal was found to be 2.64.

For the sequence CCTCTA, the binding signal is 1.33.
